From patent US12702696B2, “Methods and composition for modulating immune response and immune homeostasis” (Massachusetts Institute of Technology, priority 2019, dated 2026)

Tested on: LN-innervating sensory neurons
Experiment: Smart-Seq2 scRNA-seq differential gene expression of LN-innervating vs skin-innervating sensory neurons and Neuron Types (Table 1)
Parameters: species or system mouse
Conditions: gene upregulated in Neuron Type 2 (NP-like); differential expression between Neuron Types of LN-/skin-innervating sensory neurons

Lap3
log2 expression fold change: 1.112
